Experimental data published in US20120027773A1.
Numbering of substitutions follows the chain as printed. Results are given in words; binding and its absence hold for the method and conditions named. Some results given as binding are weak or reduced against the parent protein; the word gives no strength. One block for each binder: values may come before it.

The chains behind the UniProt entries cited, without tags or fusion partners. Residues count along the entry.
UniProt Q04912, residues 25-571: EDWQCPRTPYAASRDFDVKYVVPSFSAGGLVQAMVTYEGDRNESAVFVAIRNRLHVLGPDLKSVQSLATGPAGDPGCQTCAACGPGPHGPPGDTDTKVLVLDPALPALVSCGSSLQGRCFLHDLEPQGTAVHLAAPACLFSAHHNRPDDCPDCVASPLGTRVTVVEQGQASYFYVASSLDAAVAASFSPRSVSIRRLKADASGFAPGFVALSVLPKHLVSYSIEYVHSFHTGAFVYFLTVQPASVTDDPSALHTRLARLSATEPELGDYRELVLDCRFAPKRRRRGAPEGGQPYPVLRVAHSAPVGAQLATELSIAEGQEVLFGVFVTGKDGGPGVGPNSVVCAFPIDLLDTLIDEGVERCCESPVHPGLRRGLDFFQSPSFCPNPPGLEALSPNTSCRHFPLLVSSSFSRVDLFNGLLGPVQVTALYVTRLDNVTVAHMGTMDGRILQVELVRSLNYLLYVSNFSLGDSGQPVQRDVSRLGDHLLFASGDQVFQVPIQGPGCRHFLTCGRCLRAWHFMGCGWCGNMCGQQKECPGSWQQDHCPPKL

Columns and labels:
[1] = molecular target: recombinant human RON SEMA and PSI domains (human) (UniProt Q04912); assay: SPR 37 C (summary of Table 20)
[2] = molecular target: recombinant human RON SEMA and PSI domains (human) (UniProt Q04912); assay: SPR (summary of Table 23)
[3] = molecular target: recombinant human RON SEMA and PSI domains (human) (UniProt Q04912); assay: SPR (summary of Table 6)
[4] = molecular target: recombinant human RON SEMA and PSI domains (human) (UniProt Q04912); assay: ECL competition assay: antibody titrated on plate-coated hRON SEMA+PSI; blocked ligand MSP, detected with biotinylated anti-MSP antibody

B4: 18H09 (antibody, mouse IgG1, V domains shown)
VH: EVQLQESGPSLVKPSQTLSLTCYVTGDSITSDYWNWIRKFPGNKLEYMGYISYSGSTYYNPSLKSRISITRDTSKNQFYLRLNSVTTEDTATYYCARTHILTIAYWGQGTLVTVSA
VL: QAVVTQESALTTSPGETVTLTCRSSAGAVTTSNFANWVQEKPDHLFTGLIGDTNIRAPGVPARFSGSLIGDKAALTITGAQTEDEAIYFCALWYSNHYWVFGGGTKLTVLG
binding [3]: binds
binding [4]: binds

B5: 17F06 (antibody, mouse IgG2a, V domains shown)
VH: EVKLVESGGGLVKPGASLKLSCAASGFIFSSYGMSWVRQTSDKRLEWVASISSGGGTTYYLDTVKGRFTISRENAKDTLYLQMSGLKSEDTALYYCTRGQWLLKFAYWGQGTLVTVSA
VL: QLVLTQSSSASFSLGASAKLTCTLSSQHTTYTIEWYQQLPLKPPKYVMELKKDGSHSTGVGIPDRFSGSSSGADRYLTISNIQPEDEAIYICGVGETIEDQFVYVFGGGTKVTVLG
binding [3]: binds

B9: 07F01 (antibody, mouse IgG1, kappa, V domains shown)
VH: EVKLLESGGGLVQPGGSLKLSCAASGFDFSRHWMSWVRLAPGKGLEWIAEINPDSRTINYTPSLKEKFIISRDNAKNSLFLQMNRVRSEDTALYYCARRVRIHYYGAMDCWGQGTSVTVSS
VL: DIVLTQSQKIVSTSVGARVSVTCKASQNVGSSLVWYQQKPGQSPKTLIYSASFRYSGVPDRFTGSGSGTDFTLTISNVQSEDLADYFCQQYNNYPLTFGAGTKLELKR
binding [3]: binds
binding [4]: binds

B10: Sh07F01-2 (antibody, human IgG1, kappa, V domains shown)
VH: B9 VH with C110S
VL: B9 VL
binding [1]: binds

Continued, values first:

binding [1]: binds
B1: Sh29B06-9 (antibody, human IgG1, kappa, V domains shown)
VH: EVQLQESGPSLVKPSQTLSLTCSVTGDSITSGYWNWIRKFPGNKLEYMGYISYSGKTYYNPSLKSRISITRDTSKNHYYLQLISVTAEDTATYYCARSKYDYAMDYWGQGTSVTVSS
VL: DIVMTQSPLSLPVTPGEPASISCRASEIVDNFGISFMNWYLQKPGQSPQLLIYAASNQGSGVPDRFSGSGSGTDFTLKISRVEAEDVGVYYCQQSKEVPPTFGGGTKVEIKR

binding [2]: binds
B2: Sh29B06-78 (antibody, human IgG1, kappa, V domains shown)
VH: QVQLQESGPGLVKPSETLSLTCTVSGGSISSGYWNWIRKPPGKKLEYIGYISYSGKTYYNPSLKSRVTISRDTSKNQFSLKLSSVTAADTAVYYCARSKYDYAMDYWGQGTLVTVSS
VL: B1 VL

binding [1]: binds
B3: Sh29B06-23 (antibody, human IgG1, kappa, V domains shown)
VH: B2 VH with G27D, S30T, I48M, V67I, F78Y
VL: B1 VL

binding [2]: binds
binding [1]: binds
B6: Sh07F01-62 (antibody, human IgG1, kappa, V domains shown)
VH: EVQLVESGGGLVQPGGSLRLSCAASGFTFSRHWMSWVRQAPGKGLEWVSEINPDSRTINYAPSVKGRFTISRDNAKNSLYLQMNSLRAEDTAVYYCARRVRIHYYGAMDSWGQGTTVTVSS
VL: DIQLTQSQSFVSTSVGDRVTVTCRASQNVGSSLVWYQQKPGKSPKTLIYSASFLYSGVPSRFSGSGSGTEFTLTISSVQPEDFADYFCQQYNNYPLTFGGGTKVEIKR

binding [1]: binds
B7: Sh07F01-83 (antibody, human IgG1, kappa, V domains shown)
VH: B6 VH
VL: B6 VL with Q8P, V11L, T13A, V21I, S43A, V78L, D85T, F87Y

binding [1]: binds
B8: Sh07F01-69 (antibody, human IgG1, kappa, V domains shown)
VH: B6 VH with T28D, A61T, V64L, G66E
VL: B6 VL with Q8P, V11L, T13A, V21I, S43A, V78L, D85T, F87Y
